Values from PubChem BioAssay AID504774 (Drosophila RNAi Screening Center, 2011).
The screen tested about 23,000 reagents; below is an unselected part of those with a known target gene and a result. 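Values are quantile-normalised luminescence on an arbitrary scale; higher means more cells surviving MMS.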 A plus sign joins genes that one reagent is predicted to hit. No sequences are given here.

Screen: 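Knock-downs that shift viability of MMS-exposed cells relative to untreated ones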 (primary screen)
Cell system: Drosophila Kc167 cells
Knock-down reagent: long dsRNA against Drosophila genes, about 0.25 µg dsRNA per well
Timing: about 6 days: 3 days knock-down, then 3 days with or without MMS
Conditions: methyl methanesulphonate 0.004% (w/v) for 3 days after knock-down
Read-out: 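ATP-dependent luminescence as a measure of live cells in MMS-exposed wells, quantile normalised within each plate, with replicate values also given as a mean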
Reading the numbers: mean viability with MMS and viability with MMS: higher = more surviving cells after MMS

target | PubChem SID | mean viability with MMS | viability with MMS, replicate 1 | viability with MMS, replicate 2
sowi (GeneID 40809) | SID104192350 | 3.60e6 | 4.16e6 | 4.00e6
Slik (GeneID 37893) | SID104184263 | 3.65e6 | 3.97e6 | 3.99e6
mRpL16 (GeneID 31150) | SID104198342 | 3.60e6 | 3.92e6 | 4.24e6
Ak3 (GeneID 41318) | SID104195867 | 3.56e6 | 4.15e6 | 3.93e6
betaTub60D (GeneID 37888) | SID104184465 | 3.72e6 | 4.17e6 | 4.22e6
betaTub60D (GeneID 37888) | SID104201752 | 3.61e6 | 4.02e6 | 4.12e6
Pak (GeneID 44039) | SID104192394 | 3.47e6 | 3.94e6 | 3.92e6
Pak (GeneID 44039) | SID104202659 | 3.59e6 | 4.05e6 | 4.09e6
CG13177 (GeneID 5740215) | SID104186095 | 3.44e6 | 3.97e6 | 3.65e6
CG31538 (GeneID 318790) | SID104191851 | 3.63e6 | 4.22e6 | 3.96e6
l(2)efl (GeneID 37744) | SID104184490 | 3.63e6 | 3.86e6 | 4.07e6
Rint1 (GeneID 38807) | SID104190802 | 3.58e6 | 3.95e6 | 4.17e6
Meics (GeneID 39539) | SID104191205 | 3.36e6 | 3.72e6 | 3.85e6
Rab9Db + Rab9D + Rab9Fa + 1 more | SID104197454 | 3.47e6 | 3.99e6 | 3.90e6
CG11596 (GeneID 31158) | SID104198332 | 3.49e6 | 4.06e6 | 3.87e6
CkIalpha (GeneID 32221) | SID104200023 | 3.40e6 | 3.83e6 | 3.88e6
CkIalpha (GeneID 32221) | SID104202024 | 3.50e6 | 4.00e6 | 3.95e6
CkIalpha (GeneID 32221) | SID104202665 | 3.59e6 | 4.04e6 | 4.11e6
CG15629 (GeneID 33679) | SID104180256 | 3.59e6 | 4.23e6 | 3.88e6
Fip1 (GeneID 40569) | SID104191939 | 3.32e6 | 3.79e6 | 3.69e6
Tpl94D (GeneID 318658) | SID104193385 | 3.42e6 | 3.76e6 | 3.98e6
Fkbp14 (GeneID 37449) | SID104184407 | 3.70e6 | 4.13e6 | 4.16e6
HisT (GeneID 35697) | SID104184843 | 3.48e6 | 3.98e6 | 3.89e6
HisT (GeneID 35697) | SID104184844 | 3.81e6 | 4.27e6 | 4.36e6
HisT (GeneID 35697) | SID104186197 | 3.45e6 | 3.93e6 | 3.84e6
gig (GeneID 40201) | SID104191143 | 3.83e6 | 4.40e6 | 4.19e6
Ctr1A (GeneID 31601) | SID104198128 | 3.54e6 | 3.99e6 | 4.04e6
Pal2 (GeneID 37746) | SID104184299 | 3.66e6 | 4.09e6 | 4.20e6
Su(var)3-7 (GeneID 41627) | SID104196664 | 3.55e6 | 4.02e6 | 4.06e6
PGRP-SA (GeneID 32099) | SID104199212 | 3.58e6 | 4.06e6 | 4.04e6
flw (GeneID 44289) | SID104197784 | 3.52e6 | 4.01e6 | 3.95e6
flw (GeneID 44289) | SID104198566 | 3.36e6 | 3.78e6 | 3.85e6
Obp50d (GeneID 246436) | SID104185275 | 3.48e6 | 4.08e6 | 3.85e6
Rh5 (GeneID 34615) | SID104183204 | 3.51e6 | 3.96e6 | 3.99e6
CG5126 (GeneID 33306) | SID104180472 | 3.55e6 | 4.07e6 | 3.97e6
CG31626 + CG8677 | SID104201491 | 3.69e6 | 3.99e6 | 4.31e6
CG14302 (GeneID 42252) | SID104194573 | 3.70e6 | 4.24e6 | 4.15e6
CG11999 (GeneID 40637) | SID104191977 | 3.60e6 | 4.08e6 | 4.08e6
glob2 (GeneID 40807) | SID104192352 | 3.56e6 | 3.84e6 | 4.24e6
Ttc30 (GeneID 34702) | SID104181092 | 3.63e6 | 4.08e6 | 4.13e6
Ttc30 (GeneID 34702) | SID104182610 | 3.76e6 | 3.74e6 | 3.66e6
Cap-D2 (GeneID 43491) | SID104195193 | 3.46e6 | 3.86e6 | 3.99e6
CG4520 (GeneID 41902) | SID104195382 | 3.73e6 | 4.35e6 | 4.12e6
tpr (GeneID 37486) | SID104184260 | 3.57e6 | 4.27e6 | 3.95e6
dan (GeneID 43023) | SID104194198 | 3.30e6 | 3.78e6 | 3.73e6
r (GeneID 32640) | SID104199605 | 3.59e6 | 4.15e6 | 3.97e6
r (GeneID 32640) | SID104199606 | 3.55e6 | 4.04e6 | 4.03e6

In a second layout: entries from further up.
| target | PubChem SID | mean viability with MMS | viability with MMS, replicate 1 | viability with MMS, replicate 2 |
| --- | --- | --- | --- | --- |
| Rint1 (GeneID 38807) | SID104190802 | 3.58e6 | 3.95e6 | 4.17e6 |
| Meics (GeneID 39539) | SID104191205 | 3.36e6 | 3.72e6 | 3.85e6 |
| Rab9Db + Rab9D + Rab9Fa + 1 more | SID104197454 | 3.47e6 | 3.99e6 | 3.90e6 |
| CG11596 (GeneID 31158) | SID104198332 | 3.49e6 | 4.06e6 | 3.87e6 |
| CkIalpha (GeneID 32221) | SID104200023 | 3.40e6 | 3.83e6 | 3.88e6 |
| CkIalpha (GeneID 32221) | SID104202024 | 3.50e6 | 4.00e6 | 3.95e6 |
